Data published in patent EP3156398A1, “AGONISTS OF THE CHEMOKINE RECEPTOR CXCR3” (Friedrich-Alexander-Universität Erlangen-Nürnberg, priority 2015, dated 2017).
Some entries share one result that the patent states for a list of compounds.

What follows are molecules tested against T1, CXCR3-PK1 (Homo sapiens, UniProt P49682) (assay: β-arrestin 2 recruitment assay (PathHunter, DiscoveRx), CXCR3-PK1 construct).
T1 construct: expressed in transfected cells; host or cells: HEK293 cells stably expressing beta-gal enzyme acceptor (PathHunter, DiscoveRx), transiently transfected
T1 sequence (P49682 1-368): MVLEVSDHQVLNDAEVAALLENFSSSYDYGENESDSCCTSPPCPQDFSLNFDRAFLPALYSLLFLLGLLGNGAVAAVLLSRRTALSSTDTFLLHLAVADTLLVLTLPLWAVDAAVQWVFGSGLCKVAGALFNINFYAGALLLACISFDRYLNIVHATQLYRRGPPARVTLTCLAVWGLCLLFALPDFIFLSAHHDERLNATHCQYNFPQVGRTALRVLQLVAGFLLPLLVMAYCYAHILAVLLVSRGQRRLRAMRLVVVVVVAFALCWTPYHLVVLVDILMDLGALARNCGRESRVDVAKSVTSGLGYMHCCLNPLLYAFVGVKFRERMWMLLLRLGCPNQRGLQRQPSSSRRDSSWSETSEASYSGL
Assay type: cell-based
Procedure: β-arrestin 2 recruitment assay: The measurement of β-arrestin recruitment was performed utilizing the PathHunter assay purchased from DiscoveRx (DiscoveRx, Birmingham, U.K.) according to the manufacturer's protocol. HEK293 cells stably expressing β-gal enzyme acceptor were transiently transfected with the ProLink (PK1) tagged wildtype CXCR3 receptor using the TransIT-293 transfection reagent from Mirus (purchased from MoBiTec, Goettingen, Germany). The assay was carried out in 384-well plates containing 2000 cells in 20 µL. After incubation at 37°C (5% CO2, 95% relative humidity) overnight, various concentrations of test compounds or CXCL11 (prepared in PBS, pH 7.4, containing 0.20% BSA) were added and the incubation continued for 4 h. Detection mix was then added and incubated for further 60 min at room temperature. Chemiluminescence was determined with a microplate reader Clariostar (BMG labtech, Ortenberg, Germany).
The ability of the novel ligands according to the present invention to induce CXCR3-mediated β-arrestin 2 recruitment was investigated in the assay system PathHunter (DiscoveRx), which detects the recruitment of β-amestin 2 to the activated receptor using β-galactosidase (β-gal) enzyme fragment complementation. The inventors used two different ProLink tags, ProLink1 (PK1) and ProLink2 (PK2), of which PK2 has higher affinity for the enzyme acceptor to detect weak protein-protein interactions. The CXCR3-PK2 construct is readily able to detect the differences in the propensity of CXCL11 and CXCL10 to induce β-arrestin 2 recruitment at CXCR3. […] Table 3. Ability of the 46/VUF10661 based positive allosteric modulators to activate the CXCR3 as measured in the β-arrestin 2 recruitment assay (PathHunter, DiscoveRx).[a]

Row | Compound | β-arrestin 2 recruitment, intrinsic agonism (result in words)
1 | CC(C)(C)OC(=O)N[C@@H](CCCCNC(=O)[C@@H]1Cc2ccccc2CN1C(=O)CCC(=O)N1CCCCC1)C(=O)NCC(c1ccccc1)c1ccccc1 [Compound 16, Tert-butyl ((S)-1-((2,2-diphenylethyl)amino)-1-oxo-6-((S)-2-(4-oxo-4-(piperidin-1-yl)butanoyl)-1,2,3,4-tetrahydroisoquinoline-3-carboxamido)hexan-2-yl)carbamate] | no agonistic effect
2 | CC(C)(C)OC(=O)N[C@@H](CCCCNC(=O)[C@@H]1Cc2ccccc2CN1C(=O)CCC(=O)N1CCOCC1)C(=O)NCC(c1ccccc1)c1ccccc1 [Compound 17, Tert-butyl ((S)-1-((2,2-diphenylethyl)amino)-6-((S)-2-(4-moipholino-4--oxobutanoyl)-1,2,3,4-tetrahydroisoquinoline-3-carboxamido)-1-oxohexan-2 yl)carbamate] | no agonistic effect
3 | CN1CCN(C(=O)CCC(=O)N2Cc3ccccc3C[C@H]2C(=O)NCCCC[C@H](NC(=O)OC(C)(C)C)C(=O)NCC(c2ccccc2)c2ccccc2)CC1.O=C(O)C(F)(F)F [Compound 18, 4-(4-((S)-3-(((S)-5-((tert-butoxycarbonyl)amino)-6-((2,2-diphenylethyl)amino)-6-oxohexyl)carbamoyl)-3,4-dihydroisoquinolin-2(1H)-yl)-4-oxobutanoyl)-1-methylpiperazin-1-ium 2,2,2-trifluoroacetate] | no agonistic effect
4 | CC(C)(C)OC(=O)N[C@@H](CCCCNC(=O)[C@@H]1Cc2ccccc2CN1C(=O)CCC(=O)c1cccs1)C(=O)NCC(c1ccccc1)c1ccccc1 [Compound 19, Tert-butyl ((S)-1-((2,2-diphenylethyl)amino)-1-oxo-6-((S)-2-(4-oxo-4-(thiophen-2-yl)butanoyl)-1,2,3,4-tetrahydroisoquinoline-3-carboxamido)hexan-2-yl)carbamate] | no agonistic effect
5 | CC(C)(C)OC(=O)N[C@@H](CCCCNC(=O)[C@@H]1Cc2ccccc2CN1C(=O)CCC(=O)c1ccco1)C(=O)NCC(c1ccccc1)c1ccccc1 [Compound 20, Tert-butyl ((S)-1-((2,2-diphenylethyl)amino)-6-((S)-2-(4-(furan-2-yl)-4-oxobutanoyl)-1,2,3,4-tetrahydroisoquinoline-3-carboxamido)-1-oxohexan-2-yl)carbamate] | no agonistic effect
